Measurements taken from patent US7893071B2, “Synthesis and evaluation of novel phthalimide mimics as anti-angiogenic” (University of Virginia Patent Foundation, priority 2001, dated 2011).
Some of these results come from one statement about several compounds together. Some ranges recur; such a range may be that of the whole group of compounds.

What follows are compounds tested on human vascular endothelial cells (HUVECS) (assay: Endothelial cell proliferation assay ([3H]-thymidine incorporation)). Settings: fold greater potency than thalidomide.
Assay type: cell-based
`CCCCCCC(c1ccc(OC)c(OC)c1)N1C(=O)c2ccccc2C1=O` (stereo not shown) [Compound 32] was tested, and the “potency relative to thalidomide in inhibiting 3H-thymidine incorporation into endothelial cells” value was 2-4 times.
`CCOc1ccccc1N1C(=O)c2ccccc2C1=O` [Compound 50] was tested, and the “potency relative to thalidomide in inhibiting 3H-thymidine incorporation into endothelial cells” value was 2-4 times.
In the case of `CCC(c1cccc2ccccc12)N1C(=O)c2ccccc2C1=O` (stereo not shown) [Compound 29], the “potency relative to thalidomide in inhibiting 3H-thymidine incorporation into endothelial cells” value is reported as 2-4 times.
In the case of `O=C1c2ccccc2C(=O)N1c1ccc2c(c1)CCC2` [Compound 5], the “potency relative to thalidomide in inhibiting 3H-thymidine incorporation into endothelial cells” value is reported as 2-4 times.
